# No constants are given. Whether binding was seen depends on the method and setting. Some results given as binding are weak or reduced against the parent protein; the word gives no strength.
# Molecular target: Aβ1-42 monomer (human)
# Experiment: ELISA on human Aβ42 monomer
row,Binder,binding
1,"066-4.26.14H2L2 (antibody, V domains shown) VH: EVQLVESGGGLVKPGGSLRLSCAASGFTFRSYAMSWVRQTPEKRLEWVASISTTSNTYYPDSVKGRFTTSRDNAKNSVYLQMSSLRAEDTAVYYCGRGVITNQAWFAYWGQGTTVTVSS VL: DIVLTQSPATLSVSPGERATLSCRASQSISNNLHWYQQKPGQAPRLLIKYASQSISGIPARFSGSGSGTDFTLTISSLQSEDFAVYFCQQSNSWPLTFGGGTKVEIK",binds
2,"066-4.26.14H2L3 (antibody, V domains shown) VH: EVQLVESGGGLVKPGGSLRLSCAASGFTFRSYAMSWVRQTPEKRLEWVASISTTSNTYYPDSVKGRFTTSRDNAKNSVYLQMSSLRAEDTAVYYCGRGVITNQAWFAYWGQGTTVTVSS VL: DIVLTQSPDFQSVTPKEKVTISCRASQSISNNLHWYQQKPDQSPKLLIKYASQSISGIPSRFSGSGSGTDFTLTINSLEAEDAAAYFCQQSNSWPLTFGPGTKVEIK",binds

# Next, values leading:
row,binding,Binder
1,binds,"066-4.26.14H5L2 (antibody, V domains shown) VH: EVQLVESGGGLVQPGGSLRLSCVASGFTFRSYAMSWVRQAPGKGLEWVASISTTSNTYYPDSVKGRFTTSRDNSKNTVYLQMSSLRAEDTAVYYCGRGVITNQAWFAYWGQGTLVTVSS VL: DIVLTQSPATLSVSPGERATLSCRASQSISNNLHWYQQKPGQAPRLLIKYASQSISGIPARFSGSGSGTDFTLTISSLQSEDFAVYFCQQSNSWPLTFGGGTKVEIK"
2,binds,"066-4.26.14H5L1 (antibody, V domains shown) VH: EVQLVESGGGLVQPGGSLRLSCVASGFTFRSYAMSWVRQAPGKGLEWVASISTTSNTYYPDSVKGRFTTSRDNSKNTVYLQMSSLRAEDTAVYYCGRGVITNQAWFAYWGQGTLVTVSS VL: DIVLTQSPATLSVSPGERVTLSCRASQSISNNLHWYQQKSGQAPRLLIKYASQSISGIPSRFSGSGSGTDFTLTISSLQSEDFAVYFCQQSNSWPLTFGGGTQVEIK"
3,binds,"066-4.26.14H5L3 (antibody, V domains shown) VH: EVQLVESGGGLVQPGGSLRLSCVASGFTFRSYAMSWVRQAPGKGLEWVASISTTSNTYYPDSVKGRFTTSRDNSKNTVYLQMSSLRAEDTAVYYCGRGVITNQAWFAYWGQGTLVTVSS VL: DIVLTQSPDFQSVTPKEKVTISCRASQSISNNLHWYQQKPDQSPKLLIKYASQSISGIPSRFSGSGSGTDFTLTINSLEAEDAAAYFCQQSNSWPLTFGPGTKVEIK"
4,binds,"066-4.26.14H4L2 (antibody, V domains shown) VH: EVQLVESGGGLVQPGGSLRLSCAASGFTFRSYAMSWVRQAPGKGLEWVASISTTSNTYYPDSVKGRFTTSRDNAKNSVYLQMSSLRDEDTAMYYCGRGVITNQAWFAYWGQGILVTVSS VL: DIVLTQSPATLSVSPGERATLSCRASQSISNNLHWYQQKPGQAPRLLIKYASQSISGIPARFSGSGSGTDFTLTISSLQSEDFAVYFCQQSNSWPLTFGGGTKVEIK"
